In paper PMC2424043, “Organelle-specific isoenzymes of plant V-ATPase as revealed by in vivo-FRET analysis” (BMC Cell Biology, 2008) one finds binding data, which are given here for four molecules.

These are yes or no findings as the source states them, for the method shown. Binding seen in cells or lysates may run through a third protein. A result given as binding can be weak or reduced; the word gives no strength. Where a sequence is shown, tags or fusion partners need not be part of it.

B1: VHA-c"_(trunc) (third and fourth helices of VHA-c"1) fused to CFP (domain or fragment, A. thaliana, UniProt Q9SZY7 88-180, looked up)
chain: QTKLESVPSSKMYDAESLRAGYAIFASGIIVGFANLVCGLCVGIIGSSCALSDAQNSTLFVKILVIEIFGSALGLFGVIVGIIMSAQATWPTK
notes: VHA-c"1 aa 88-180 (helices 3 and 4), A. thaliana; Intermediate construct of the hybrid in vector 35S-CFP-C; fused to the C-terminus of the fluorescent protein; also called truncated VHA-c"; VHA-c"1_(trunc); source: A. thaliana mesophyll protoplasts, transiently transfected, in living cells; not shown: CFP, N-terminal, kept
B2: VHA-c"1 (V-ATPase proteolipid subunit c", isoform 1) fused to CFP or YFP (protein, UniProt Q9SZY7 1-180)
chain: MSGVVALGHASSWGAALVRISPYTFSAIGIAISIGVSVLGAAWGIYITGSSLIGAAIEAPRITSKNLISVIFCEAVAIYGVIVAIILQTKLESVPSSKMYDAESLRAGYAIFASGIIVGFANLVCGLCVGIIGSSCALSDAQNSTLFVKILVIEIFGSALGLFGVIVGIIMSAQATWPTK
B3: hybrid proteolipid subunit (VHA-c helices 3-4 and VHA-c"1 helices 3-4) fused to CFP (protein, UniProt P0DH93 80-164; Q9SZY7 88-180)
chain: NPKAKSYYLFDGYAHLSSGLACGLAGLSAGMAIGIVGDAGVRANAQQPKLFVGMILILIFAEALALYGLIVGIILSSRAGQSRAEQTKLESVPSSKMYDAESLRAGYAIFASGIIVGFANLVCGLCVGIIGSSCALSDAQNSTLFVKILVIEIFGSALGLFGVIVGIIMSAQATWPTK
B4: VHA-c3 (V-ATPase proteolipid subunit c, isoform 3) fused to CFP or YFP (natural protein, A. thaliana, UniProt P0DH93 1-164, looked up)
chain: MSTFSGDETAPFFGFLGAAAALVFSCMGAAYGTAKSGVGVASMGVMRPELVMKSIVPVVMAGVLGIYGLIIAVIISTGINPKAKSYYLFDGYAHLSSGLACGLAGLSAGMAIGIVGDAGVRANAQQPKLFVGMILILIFAEALALYGLIVGIILSSRAGQSRAE
notes: VHA-c3, A. thaliana, At4g38920, open reading frame without the stop codon; One molecule for the CFP and the YFP fusion; vectors 35S-CFP-NosT and 35S-YFP-NosT; List of constructs in Additional file 4; also called VHA-c-CFP; VHA-c-YFP; source: A. thaliana mesophyll protoplasts, transiently transfected, in living cells; not shown: CFP or YFP, C-terminal, kept

This test concerns the target VHA-a-YFP (Mesembryanthemum crystallinum V-ATPase subunit a fused to YFP) (Mesembryanthemum crystallinum). As to the kind of experiment: FRET or BRET; in vivo FRET by sensitized acceptor emission (confocal laser scanning microscopy) in co-transfected A. thaliana mesophyll protoplasts; CFP fusion as donor, YFP fusion as acceptor; a FRET value of 8-10% is taken as background. In general terms: BRET reads energy transfer from a luciferase to a nearby fluorophore.
With B1, the binding result is given as “binds”.

Take B2: the binding result is reported as “binds”. In the case of B3 it was “binds”. As for B4, the binding entry is listed as “binds”.
